The target of one assay is rat insulin (rat). Put plainly: ELISA. (In general: An ELISA detects its analyte on a solid surface through an enzyme-linked reagent.)
Assay [1] deals with IGFBP-3 (IGF-binding protein 3). Put plainly: Biacore, mAb immobilised, IGFBP-3 454 nM; called nonspecific. A general note: Surface plasmon resonance follows binding to a sensor surface in real time, without labels.

Results are given in words; binding and its absence hold for the method and conditions named. For some of these results: Binding calls can cover weak binding; strength is not graded here.

B1: mAb 7.34.1 (ATCC Accession Number PTA-7423) (antibody, V domains shown)
VH: QVQLQESGPGLVKPSETLSLTCTVSGGSISSYYWSWIRQPPGRGLEWIGYFFYSGYTNYNPSLKSRVTMSVDTSKNQFSLKLSSVTAADTAVYYCACITGTTKGGMDVWGQGATVTVSS
VL: QSVLTQAPSVSGAPGQRVTISCTGRSSNIGAGYDVHWYQQFPGTAPKLLIYGNSNRPSGVPDRFSGSKSGTSASLAITGLQAEDEADYYCQSYDSSLSGSVFGGGTKLTVLG
B1: the binding entry with rat insulin (rat) is reported as “no binding”; in assay [1], “binds”.

B2: mAb 7.251.3 (ATCC Accession Number PTA-7422) (antibody, V domains shown)
VH: QVQLQESGPGLVKPSETLSLTCTVSGGSISSYYWSWIRQPPGKGLEWIGYFFYSGYTNYNPSLKSRVTISVDTSKNQFSLKLSSVTAADTAVYYCACITGTTKGGMDVWGQGTTVTVSS
VL: QSVLTQPPSVSGAPGQRVTISCTGSSSNIGAGYDVHWYQQLPGTAPKLLIYGNNNRPSGVPDRFSGSKSGTSASLAITGLQADDEADYYCQSFDSSLSGSVFGGGTKLTVLG
In the case of B2, the binding entry with rat insulin (rat) was “no binding”; in assay [1], “binds”.

B3: mAb 7.234.2 (antibody, V domains shown)
VH: QLQLQESGPGLVKPSETLSLTCTVSGGSINSSSNYWGWIRQPPGKGLAWIGGIYYSGSTYYNPSLRSRVTMSVDTSKNQFSLKLSSVTAADTAVYYCARQRGHSSGWWYFDLWGRGTLVTVSS
VL: DIQMTQSPSSVSASVGDRVTITCRASRGISSWLAWYQQRPGKAPKLLIYTASSLQSGVPSRFSGSGSGTDFTLTISSLQPEDFATYYCQQANSFPFTFGPGTKVDIKR
Consider B3, for which the binding entry in the assay with rat insulin (rat) is given as “no binding”.

B4: mAb 7.159.2 (ATCC Accession Number PTA-7424) (antibody, V domains shown)
VH: QVQLVQSGAEVKKPGASVKVSCKASGYTFTSYDINWVRQATGQGLEWMGWMNPNSGNTGYAQKFQGRVTMTRNTSISTAYMELSSLRSEDTAVYYCARDPYYYYYGMDVWGQGTTVTVSS
VL: QSVLTQPPSVSAAPGQKVTISCSGSSSNIENNHVSWYQQLPGTAPKLLIYDNNKRPSGIPDRFSGSKSGTSATLGITGLQTGDEADYYCETWDTSLSAGRVFGGGTKLTVLG
Take B4: the values for the binding entry (with rat insulin (rat); in assay [1]) were “no binding” and “binds”, respectively.

(Values after patent US20070196376A1.)
